From article PMC8014998
These are yes or no findings as the source states them, for the method shown. Binding seen in cells or lysates may run through a third protein.

Amino acid sequences for entries named in this document (tags omitted). A change or cut given only in a name is not applied to a line headed by its entry. Chains listed by the source or under a name are the forms on record and can include a tag or linker. Residues count along the entry.
CLPP-WT-FLAG (O88696, residues 53-272): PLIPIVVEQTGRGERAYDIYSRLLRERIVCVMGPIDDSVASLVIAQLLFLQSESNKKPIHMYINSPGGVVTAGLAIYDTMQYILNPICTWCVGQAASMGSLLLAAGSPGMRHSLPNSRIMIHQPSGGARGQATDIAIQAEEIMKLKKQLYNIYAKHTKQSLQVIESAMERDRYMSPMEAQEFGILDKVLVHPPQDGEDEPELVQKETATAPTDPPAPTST
CLPP-TRAP-FLAG (O88696, form named): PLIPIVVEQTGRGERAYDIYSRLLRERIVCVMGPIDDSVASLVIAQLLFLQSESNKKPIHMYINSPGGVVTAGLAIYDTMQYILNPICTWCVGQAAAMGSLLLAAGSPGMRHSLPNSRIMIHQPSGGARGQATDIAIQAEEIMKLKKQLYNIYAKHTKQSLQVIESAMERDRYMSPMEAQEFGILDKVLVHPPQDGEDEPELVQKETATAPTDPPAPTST
UniProt Q9DCC8: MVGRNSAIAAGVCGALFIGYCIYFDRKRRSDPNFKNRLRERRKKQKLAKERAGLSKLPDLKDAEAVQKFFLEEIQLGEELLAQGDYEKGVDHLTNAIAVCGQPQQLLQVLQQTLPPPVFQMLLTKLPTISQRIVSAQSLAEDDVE

What was measured:
CLPP-TRAP-FLAG = CLPP-TRAP-FLAG (UniProt O88696); experiment: co-IP; same anti-FLAG immunoprecipitation from whole cell lysates of transfected Clpp-/- MEFs; lysate, flow-through, wash and elution fractions by SDS-PAGE and Western blotting
CLPP-WT-FLAG = CLPP-WT-FLAG (UniProt O88696); experiment: as above

**Q.** Which results are given for TOMM20 (from UniProt Q9DCC8 1-145)?
**A.** binding (CLPP-TRAP-FLAG): no binding; binding (CLPP-WT-FLAG): no binding
